Patent US9085602B1, “Facial amphiphiles and methods of use” (The Scripps Research Institute, priority 2008, dated 2015)
Some results were stated once for a whole list of compounds, not compound by compound. For at least one compound, name, drawing or mass did not settle the structure.

By UniProt entry, the sequences of proteins in these tests, tags left out. Where a name states a change or a piece, a line headed by the entry shows the natural chain unless it says otherwise.
UniProt P63359: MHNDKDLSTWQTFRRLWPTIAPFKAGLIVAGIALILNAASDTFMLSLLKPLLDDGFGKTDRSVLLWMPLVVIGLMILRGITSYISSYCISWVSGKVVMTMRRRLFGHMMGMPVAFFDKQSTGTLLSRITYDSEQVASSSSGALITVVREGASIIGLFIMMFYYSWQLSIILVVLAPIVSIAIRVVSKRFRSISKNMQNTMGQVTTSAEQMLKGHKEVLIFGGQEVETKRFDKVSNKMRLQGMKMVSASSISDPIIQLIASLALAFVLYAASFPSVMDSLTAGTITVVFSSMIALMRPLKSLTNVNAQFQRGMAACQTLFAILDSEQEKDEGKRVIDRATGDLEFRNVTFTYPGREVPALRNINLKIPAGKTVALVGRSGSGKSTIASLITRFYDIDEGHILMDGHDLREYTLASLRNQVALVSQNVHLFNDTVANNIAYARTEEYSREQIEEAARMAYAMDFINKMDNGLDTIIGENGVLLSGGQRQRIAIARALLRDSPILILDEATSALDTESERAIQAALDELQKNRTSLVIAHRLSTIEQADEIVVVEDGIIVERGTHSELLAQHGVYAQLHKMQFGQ

What was measured:
[1] = target: MsbA from S. typhimurium (ST-MsbA) (Salmonella typhimurium, UniProt P63359); test: Solubilization of MsbA from membranes by detergent
[2] = Critical micelle concentration (CMC) by ANS fluorescence dye binding; type: physicochemical; details: relative to compound A1
Method: See De Vendittis et al., Anal. Biochem. 1981, 115, 278-86. The molecule ANS has a weak fluorescence in detergent concentrations below CMC, but becomes highly fluorescent when incorporated into the hydrophobic micellar environment. […] The emission fluorescence intensities at 465 nm were recorded (λex=405 nm) on a DXT880 multiplate spectrofluorimeter (Beckman Coulter). The CMC is defined as the breakpoint in the fluorescence (FIG. 4).
See also De Vendittis et al., Anal. Biochem. 1981, 115, 278-86.

| Compound | solubilizing MsbA [1] [%] | CMC, times greater than compound A1 [2] |
| --- | --- | --- |
| C[C@H](CCC(=O)NCCC[N+](C)(C)CC(O)CS(=O)(=O)[O-])[C@H]1CC[C@H]2[C@@H]3[C@H](O)C[C@@H]4C[C@H](O)CC[C@]4(C)[C@H]3C[C@H](O)[C@]12C (stereo partly drawn) [CHAPSO, 3-[(3-cholamidopropyl)-dimethylammonio]-2-hydroxy-1-propanesulfonate] | < 15 |  |
| C[C@H](CCC(=O)[O-])[C@H]1CC[C@H]2[C@@H]3[C@H](O)C[C@@H]4C[C@H](O)CC[C@]4(C)[C@H]3C[C@H](O)[C@]12C.[Na+] [sodium cholate] | < 15 | 80-140 times |
